We go through 13 compounds from PubChem BioAssay AID192 (DTP/NCI, 2004).

For the assay, the system named is BDF1 mice, B16 melanoma ip, median survival T/C. Description: NCI In Vivo Anticancer Drug Screen. Data for tumor model B16 Melanoma (intraperitoneal) in B6D2F1 (BDF1) mice. The following applies: T/C endpoint: median survival time, higher T/C = longer survival. The essentials: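 The ratio T/C compares compound-treated mice with vehicle-treated controls, using survival or tumor size as the endpoint in a transplantable tumor model.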

Setting [1] is: dose: 50.0 mg/kg/injection, schedule: Q01DX009 (ip), vehicle: saline.
The mark [2] stands for this setting: dose: 25.0 mg/kg/injection, schedule: Q01DX009 (ip), vehicle: Klucel (hydroxypropylcellulose) (HPC).
Setting [3] is: dose: 100.0 mg/kg/injection, schedule: Q01DX009 (ip), vehicle: Klucel (hydroxypropylcellulose) (HPC).
Setting [4] is: dose: 200.0 mg/kg/injection, schedule: Q01DX009 (ip), vehicle: Klucel (hydroxypropylcellulose) (HPC).
The mark [5] stands for this setting: dose: 10.0 mg/kg/injection, schedule: Q01DX009 (ip), vehicle: Klucel (hydroxypropylcellulose) (HPC).
[6] abbreviates: dose: 20.0 mg/kg/injection, schedule: Q01DX009 (ip), vehicle: Klucel (hydroxypropylcellulose) (HPC).
The mark [7] stands for this setting: dose: 40.0 mg/kg/injection, schedule: Q01DX009 (ip), vehicle: Klucel (hydroxypropylcellulose) (HPC).
Where [8] appears, read: dose: 100.0 mg/kg/injection, schedule: Q01DX009 (ip), vehicle: olive oil, sesame oil, peanut oil.
Where [9] appears, read: dose: 640.0 mg/kg/injection, schedule: Q04DX003 (ip), vehicle: Klucel (hydroxypropylcellulose) (HPC).

Each structure is given as a SMILES string. The list shows only some results of the screen, not a fair sample: it is rich in T/C values a quarter to a half above the control, in often repeated tests (any T/C) and in doses without a T/C. Other doses and runs of a compound stand elsewhere. T/C gives the treated animals as a percentage of the vehicle group. Some entries give survivors of the animals treated and no T/C: the source holds a T/C of zero for them, seemingly a mark for toxic or unscored doses. Some doses without a T/C left all or most animals alive at the check, yet need not have been tolerated: survival well below the control is almost never listed, so the zero probably covers shortened survival too. Survivors were counted at the toxicity check, usually on the fifth day, unless a day is given; later deaths do not show. Schedules are NCI's codes, taken here to give the interval after Q, in days (D) or hours (H), and the number of doses after X. Additions like (4×) count equal records among those shown. Some entries hold several experiments; the values are given in rising order. Where survival is the endpoint, the PubChem record calls one and a half times the control and up active, and a quarter to a half above the control has no call in these data; cut-offs in other NCI protocols can differ. Some T/C values are followed by the survivors on the day toxicity was checked, most often the fifth; where none is given, no animal had died by that day.

`O=C(Nc1ccc(Cl)c(Cl)c1)Nc1c(Oc2ccc(Cl)c(Cl)c2)ccc(Cl)c1S(=O)(=O)O`: the T/C reads like this: (dose: 3.12 mg/kg/injection, schedule: Q01DX009 (ip), vehicle: saline with Tween-80) 142 % of control; (dose: 12.5 mg/kg/injection, schedule: Q01DX009 (ip), vehicle: saline with Tween-80) 149 % of control; (dose: 50.0 mg/kg/injection, schedule: Q01DX009 (ip), vehicle: saline with Tween-80) 129 % of control; (dose: 100.0 mg/kg/injection, schedule: Q01DX009 (ip), vehicle: saline with Tween-80) 149 % of control.

Take `Cc1ccc(NC(=O)c2ccccc2C(=O)O)cc1Cl`: for the setting “dose: 400.0 mg/kg/injection, schedule: Q01DX009 (ip), vehicle: Klucel (hydroxypropylcellulose) (HPC)”, the survivor count is 2 of 10.

In the case of `O=C1C(Cl)=C(N=Nc2c(Cl)c(O)c3ccccc3c2O)C(=O)c2ccccc21`, the survivor count is, setting by setting: under setting [1], 6 of 6; (dose: 100.0 mg/kg/injection, schedule: Q01DX009 (ip), vehicle: saline) 5 of 6.

On to `CCC1(O)CC(OC2CC(N(C)C)C(OC3CC(O)C(OC4CCC(=O)C(C)O4)C(C)O3)C(C)O2)c2c(cc3c(c2O)C(=O)c2c(O)ccc(O)c2C3=O)C1C(=O)OC` (configuration not stated), for which the T/C by setting is: (dose: 0.46 mg/kg/injection, schedule: Q01DX009 (ip), vehicle: saline with Tween-80) 126 % of control [9 of 10 alive]; (dose: 0.93 mg/kg/injection, schedule: Q01DX009 (ip), vehicle: saline with Tween-80) 134 [9 of 10 alive] and 138 % of control. Further, the survivor count was 10 of 10 (dose: 1.87 mg/kg/injection, schedule: Q01DX009 (ip), vehicle: saline with Tween-80); 10 of 10 (dose: 3.75 mg/kg/injection, schedule: Q01DX009 (ip), vehicle: saline with Tween-80); 9 of 10 (dose: 7.5 mg/kg/injection, schedule: Q01DX009 (ip), vehicle: saline with Tween-80); 8 of 8 (dose: 10.0 mg/kg/injection, schedule: Q01DX001 (ip), vehicle: water); 0 of 10 (dose: 15.0 mg/kg/injection, schedule: Q01DX009 (ip), vehicle: saline with Tween-80); 2 of 8 and 3 of 8 (dose: 16.7 mg/kg/injection, schedule: Q01DX001 (ip), vehicle: water).

For `C[Si](C)(O[Si](C)(C)c1ccccc1)c1ccccc1`, under setting [1], the T/C is 129 % of control.

As to `[I][Pt+2][I].[NH-]CC[NH-]`, the T/C (dose: 22.0 mg/kg/injection, schedule: Q01DX009 (ip), vehicle: Klucel (hydroxypropylcellulose) (HPC)) is 140 % of control. Moreover, the survivor count (dose: 44.0 mg/kg/injection, schedule: Q01DX009 (ip), vehicle: Klucel (hydroxypropylcellulose) (HPC)) is 4 of 10.

As to `CC(=O)OCC1OC(OC2=C(CC=C(C)C)C(=O)c3ccccc3C2=O)C(OC(C)=O)C(OC(C)=O)C1OC(C)=O` (configuration not stated), the survivor count is on record as 10 of 10 (dose: 12.5 mg/kg/injection, schedule: Q01DX009 (ip), vehicle: Klucel (hydroxypropylcellulose) (HPC)); 10 of 10 under setting [2]; 10 of 10 under setting [3]; 6 of 10 under setting [4].

Take `Cc1cc(C)c([I+]c2c(C)cc(C)cc2C)c(C)c1`: for the setting “dose: 12.0 mg/kg/injection, schedule: Q01DX009 (ip), vehicle: Klucel (hydroxypropylcellulose) (HPC)”, the survivor count is on record as 7 of 10.

In the case of `[Cl][Pt+2][Cl].[NH-]C1CCCC1.[NH-]C1CCCC1`, the T/C was 130 % of control under setting [5]; 104, 112, 130 % of control under setting [6]; 102 and 130 % of control under setting [7]; 147 % of control (dose: 40.0 mg/kg/injection, schedule: Q01DX009 (ip), vehicle: saline); 140 % of control (dose: 80.0 mg/kg/injection, schedule: Q01DX009 (ip), vehicle: saline); 130 % of control (dose: 80.0 mg/kg/injection, schedule: Q04DX003 (ip), vehicle: saline). The T/C (dose: 160.0 mg/kg/injection, schedule: Q01DX001 (ip), vehicle: saline) is 131 % of control; the T/C (dose: 160.0 mg/kg/injection, schedule: Q04DX003 (ip), vehicle: saline) is 126 % of control; the T/C (dose: 320.0 mg/kg/injection, schedule: Q01DX001 (ip), vehicle: saline) was 136 % of control; the T/C (dose: 320.0 mg/kg/injection, schedule: Q04DX003 (ip), vehicle: saline) is 125 % of control; the T/C (dose: 640.0 mg/kg/injection, schedule: Q01DX001 (ip), vehicle: Klucel (hydroxypropylcellulose) (HPC)) was 130 % of control [9 of 10 alive]; the T/C (dose: 640.0 mg/kg/injection, schedule: Q01DX001 (ip), vehicle: saline) was 135 % of control. Also, the T/C was 126 % of control under setting [9]; 140 % of control (dose: 1280.0 mg/kg/injection, schedule: Q01DX001 (ip), vehicle: Klucel (hydroxypropylcellulose) (HPC)); 131 % of control (dose: 1280.0 mg/kg/injection, schedule: Q01DX001 (ip), vehicle: saline). Besides, the survivor count runs as follows: under setting [5], 7 of 10; under setting [6], 10 of 10; under setting [7], 3 of 10 and 10 of 10; (dose: 40.0 mg/kg/injection, schedule: Q04DX003 (ip), vehicle: Klucel (hydroxypropylcellulose) (HPC)) 9 of 10; (dose: 80.0 mg/kg/injection, schedule: Q01DX009 (ip), vehicle: Klucel (hydroxypropylcellulose) (HPC)) 1 of 10 and 10 of 10; (dose: 80.0 mg/kg/injection, schedule: Q04DX003 (ip), vehicle: Klucel (hydroxypropylcellulose) (HPC)) 10 of 10. For the same compound, the survivor count by setting is: under setting [8], 6 of 6; (dose: 160.0 mg/kg/injection, schedule: Q01DX009 (ip), vehicle: Klucel (hydroxypropylcellulose) (HPC)) 2 of 10 and 9 of 10; (dose: 160.0 mg/kg/injection, schedule: Q01DX009 (ip), vehicle: saline with Tween-80) 10 of 10; (dose: 160.0 mg/kg/injection, schedule: Q04DX003 (ip), vehicle: Klucel (hydroxypropylcellulose) (HPC)) 7 of 10; (dose: 320.0 mg/kg/injection, schedule: Q01DX009 (ip), vehicle: Klucel (hydroxypropylcellulose) (HPC)) 3 of 10 and 9 of 10; (dose: 320.0 mg/kg/injection, schedule: Q04DX003 (ip), vehicle: Klucel (hydroxypropylcellulose) (HPC)) 10 of 10. Also, under setting [9], the survivor count is recorded as 9 of 10.

Take `CCCC(=O)O`: the survivor count (dose: 200.0 mg/kg/injection, schedule: Q01DX009 (ip), vehicle: saline) is recorded as 8 of 10 and the survivor count (dose: 400.0 mg/kg/injection, schedule: Q01DX009 (ip), vehicle: saline) is given as 0 of 10.

As for `Oc1c(Cl)cc(Cl)cc1/C=N/NC(=S)Nc1cc(C(F)(F)F)cc(C(F)(F)F)c1`, the survivor count is 10 of 10 (2×) (dose: 6.25 mg/kg/injection, schedule: Q01DX009 (ip), vehicle: olive oil, sesame oil, peanut oil); 10 of 10 (2×) (dose: 12.5 mg/kg/injection, schedule: Q01DX009 (ip), vehicle: olive oil, sesame oil, peanut oil); 10 of 10 (2×) (dose: 25.0 mg/kg/injection, schedule: Q01DX009 (ip), vehicle: olive oil, sesame oil, peanut oil); 9 of 10 (dose: 50.0 mg/kg/injection, schedule: Q01DX009 (ip), vehicle: olive oil, sesame oil, peanut oil); 10 of 10 (2×) under setting [8]; 8 of 10 (dose: 200.0 mg/kg/injection, schedule: Q01DX009 (ip), vehicle: olive oil, sesame oil, peanut oil).

With `CCC(C)C(C(=O)OCCN(CC)CC)c1ccccc1` (configuration not stated), the survivor count is 9 of 10 under setting [3] and 3 of 10 under setting [4].

As to `N#CC(=C1C=CC(=NO)C=C1)c1ccccc1`, under setting [2], the T/C was 125 % of control.
